Laboratory results: paper PMC10531356, “Hardening of Respiratory Syncytial Virus Inclusion Bodies by Cyclopamine Proceeds through Perturbation of the Interactions of the M2-1 Protein with RNA and the P Protein” (International Journal of Molecular Sciences, 2023)
Like-named read-outs stand apart in the source and are kept apart here. Results are given in words; binding and its absence hold for the method and conditions named. Some binding calls cover weakened binding; strength is not graded here. Sequences can lack the tags named with a protein.

Sequences of proteins named here, by UniProt entry; tags and fusion partners are left off.
UniProt P12579: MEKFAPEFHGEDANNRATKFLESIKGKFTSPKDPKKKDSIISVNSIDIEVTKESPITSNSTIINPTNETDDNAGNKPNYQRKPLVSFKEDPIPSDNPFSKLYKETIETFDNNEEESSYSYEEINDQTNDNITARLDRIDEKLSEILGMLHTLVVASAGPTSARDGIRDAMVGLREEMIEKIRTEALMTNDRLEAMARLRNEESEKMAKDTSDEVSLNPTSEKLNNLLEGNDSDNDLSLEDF

Columns and labels:
[1] = biological target: T1, GST-M2-1core (human respiratory syncytial virus (hRSV), strain Long) (UniProt P04545); experiment: pull-down; GST-M2-1core on beads incubated with purified P in PBS, 1 h at 4 °C, with 400 µM CPM or DMSO; then 160 µg/mL tRNA 30 min; SDS-PAGE and Coomassie; both purified
T1 sequence: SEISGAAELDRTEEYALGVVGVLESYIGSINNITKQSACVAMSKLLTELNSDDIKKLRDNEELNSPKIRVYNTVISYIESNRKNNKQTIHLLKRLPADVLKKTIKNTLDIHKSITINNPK

[2] = biological target: T1, GST-M2-1core (human respiratory syncytial virus (hRSV), strain Long); experiment: as above; remark: listed apart in the source

Q: What does the source list for “recombinant P protein (phosphoprotein, wild type) (from UniProt P12579 1-241)”?
A: binding [1]: no binding (condition: with tRNA (160 µg/mL), without CPM); binding [2]: binds
